# About 5,400 (1.8%) of roughly 300,000 compounds were called active. Inconclusive results, whose numbers are uncertain, are shown with a selection of clear calls. The call rests on the fitted dose curve; tested in HEK293 cells. A potency beside an inconclusive call is a rough fit, not a confirmed value.
# Test: qHTS for inhibitors of binding or entry into cells for Marburg Virus
# Settings: Marburg virus pseudotyped entry inhibition, cell reporter; series mostly up to 37.8 µM
# Potency means the concentration at half of the fitted maximal effect.
row,SMILES,Potency
1,CCN(CC)C(=O)COc1ccc2c3c(c(=O)oc2c1)CCCC3,"inconclusive: 35.5 µM [activator, single point]"
2,CCCOC(=O)c1ccc(-c2c(C)noc2-c2ccc(OC)cc2O)o1,"inconclusive: 7.08 µM [inhibitor, partial curve, poor fit]"
3,COc1cccc2c1C(=O)c1c(O)c3c(c(O)c1C2=O)C[C@@](O)(C(=O)CO)C[C@@H]3O[C@H]1C[C@H](N)[C@H](OC2CCCCO2)[C@H](C)O1 (some centres not stated),active: 1.25 µM
4,CN(C)CCCN(C(=O)COc1ccccc1)c1nc2cc3c(cc2s1)OCO3,"inconclusive: 6.31 µM [inhibitor, single point]"
5,Cc1cc(C)n(-c2nc(NCC(C)O)c3c4c(sc3n2)CCCC4)n1 (configuration not stated),"inconclusive: 15.8 µM [inhibitor, single point]"
6,CCOC(=O)N1CCC(NS(=O)(=O)c2ccc3c(c2)oc(=O)n3C)CC1,"inconclusive: 14.6 µM [activator, single point]"
7,O=C(Nc1ccc2oc(-c3cccnc3)nc2c1)c1ccc2c(c1)OCCO2,inactive
8,Cc1cccc(Cn2nc(C(C)(C)C)cc2C(=O)Nc2ccc(F)cc2)c1,"inconclusive: 1 µM [inhibitor, full curve, poor fit]"
9,O=C(Nc1cccc(-c2cnc3ccccc3n2)c1)c1ccc(Cl)cc1,"inconclusive: 1.3 µM [inhibitor, partial curve, poor fit]"
10,CCN(CC)c1ccc(NC(=O)C2CCN(S(=O)(=O)c3cnc[nH]3)CC2)c(C)c1,inactive
11,O=C(NCC(c1ccco1)N1CCc2ccccc21)c1ccccc1Br (configuration not stated),"inconclusive: 4.47 µM [inhibitor, partial curve, poor fit]"
12,CCOC(=O)c1cnc(-n2nc(C)cc2C)nc1NC1CCCC1,active: 11.2 µM
13,O=C(Nc1ncc(Cc2ccccc2)s1)c1cccs1,"inconclusive: 10 µM [inhibitor, partial curve, poor fit]"
14,c1ccc2c(c1)Sc1ccccc1-n1cnnc1-2,inactive
15,COc1ccccc1Nc1nc(C)c(C(=O)Nc2ccccc2)s1,"inconclusive: 1.41 µM [activator, partial curve, poor fit]"
16,O=C(CCc1nc2ccccc2c(=O)[nH]1)N1CCN(S(=O)(=O)c2ccccc2Br)CC1,inactive
17,CCN(CC)c1nc(N)c2c(N)nc3c(c2c1C#N)CC(c1ccccc1)O3 (configuration not stated),"inconclusive: 29.1 µM [inhibitor, single point]"
18,CCc1ccc(NC(=O)C(CC)n2c(=O)c(-c3ccccc3NC(C)=O)nc3ccccc32)cc1 (configuration not stated),inactive
19,CCN1CCc2c(C#N)c(N3CCCCC3)nc(N3CCOCC3)c2C1,"inconclusive: 35.5 µM [inhibitor, single point]"
20,CCC(C)(C)n1nnnc1CN(Cc1cc2cc(OC)c(OC)cc2[nH]c1=O)C1CCCC1,inactive
21,N#Cc1ccccc1Sc1ccccc1N,"inconclusive: 20.6 µM [activator, partial curve, poor fit]"
22,COc1ccc(NC(=O)CSc2nnc(-c3cccs3)n2Cc2ccco2)cc1OC,"inconclusive: 14.6 µM [inhibitor, single point]"
23,CCOc1nc2cnccc2n(CC(=O)Nc2cccc(C)c2)c1=O,inactive

row,SMILES,Potency
1,Cc1ccc(C(=O)O/N=C(\N)c2ccccc2)c(Cl)c1,"inconclusive: 2 µM [inhibitor, full curve, poor fit]"
2,CCN1CCN(c2ccc([N+](=O)[O-])cc2C(=O)c2ccc(Cl)cc2)CC1,"inconclusive: 35.5 µM [inhibitor, single point]"
3,O=C(NNC(=S)Nc1ccc(Cl)cc1)c1ccccc1OC(F)F,"inconclusive: 20.6 µM [inhibitor, single point]"
4,Cc1ccc[n+](-c2nc([O-])sc2/C=N/Nc2ccc([N+](=O)[O-])cc2)c1,"inconclusive: 3.16 µM [activator, single point]"
5,O=C(CSc1nc(-c2ccc(F)cc2)[nH]c1-c1ccc(F)cc1)Nc1ccc2c(c1)OCCO2,"inconclusive: 35.5 µM [inhibitor, single point]"
6,Cc1ccc(C(=O)NCCSc2c(C)[nH]c3ccccc23)cc1[N+](=O)[O-],inactive
7,Cc1ccc(C(=O)OCC(=O)c2c[nH]c3ccccc23)cc1S(=O)(=O)N1CCCCC1,"inconclusive: 35.5 µM [inhibitor, single point]"
8,O=C(c1ccccc1)c1nn(-c2ccc(Cl)cc2)c(=O)cc1C(F)(F)F,active: 8.91 µM
9,CCc1noc(C)c1C(=O)N1CCSC1=Nc1cccc(Cl)c1C,"inconclusive: 11.2 µM [inhibitor, single point]"
10,CC(C)CC(c1nnnn1CC1CCCO1)N1CCN(c2nc3ccccc3s2)CC1 (configuration not stated),"inconclusive: 35.5 µM [inhibitor, single point]"
11,CCN(C(=O)CCS(=O)(=O)c1cccc2nonc12)c1ccc(C)c(C)c1,"inconclusive: 7.94 µM [inhibitor, partial curve, poor fit]"
12,COc1ccc(-c2nc(N)n(C(=O)c3ccc(C)cc3)n2)cc1,"inconclusive: 4.61 µM [inhibitor, single point]"
13,COc1ccc(OC)c(CNC(=O)CSc2c3c(nc4cc(Cl)ccc24)CCCC3)c1,"inconclusive: 35.5 µM [inhibitor, single point]"
14,CCCN1C2CCCC1CC(NC(=O)c1ccccc1OC)C2 (configuration not stated),"inconclusive: 1.58 µM [inhibitor, full curve, poor fit]"
15,CC(=O)Nc1cccc(NC(=O)C(=O)Nc2ccc3c(c2)N(C(=O)C2CC2)CCC3)c1,"inconclusive: 12.6 µM [inhibitor, partial curve, poor fit]"
16,Cc1ccc(-c2csc(C(C#N)=C3CCCC3)n2)cc1,"inconclusive: 14.1 µM [activator, partial curve, poor fit]"
17,Clc1cccc(OCCN2CCOCC2)c1,"inconclusive: 1.64 µM [inhibitor, partial curve, poor fit]"
18,COC(=O)C1=C(Nc2ccc(C)cc2)C=C(C)C(C(=O)OC)C1c1cccc(OC)c1 (configuration not stated),"inconclusive: 29.1 µM [inhibitor, single point]"
19,O=C(CCCn1c(=O)c2sccc2n(CC(=O)NCc2ccco2)c1=O)NCc1ccco1,"inconclusive: 0.366 µM [activator, partial curve, poor fit]"
20,CN(Cc1nc(-c2cnccn2)no1)CC(O)c1ccccc1 (configuration not stated),inactive
21,CSc1ccc(CN(C)C(=O)CN2C(=O)NC3(CCCC3)C2=O)cc1,inactive
22,CCC(=O)Nc1nonc1-c1nc2ccccc2n1CCC(C)C,"inconclusive: 35.5 µM [inhibitor, single point]"
23,Cn1c(=O)cc(SCC(=O)N2CCN(Cc3ccc4c(c3)OCO4)CC2)c2ccccc21,inactive

row,SMILES,Potency
1,O=C(NC1CCCCC1)N1CCC(c2nc(-c3ccc(S(=O)(=O)N4CCCC4)cc3)no2)CC1,inactive
2,CCc1ccc(C(=O)N/N=C/c2cccc3ccccc23)nc1,"inconclusive: 35.5 µM [activator, single point]"
3,COc1ccc(Br)cc1CN(C)C(=O)c1cc(Cl)c2c(c1)OCCO2,"inconclusive: 35.5 µM [inhibitor, single point]"
4,CCN(CCCNC(=O)c1nn(-c2ccc(OC)c(Cl)c2)c(=O)c2c1c1ccccc1n2C)c1ccccc1,"inconclusive: 35.5 µM [activator, single point]"
5,O=C1c2nccnc2C(=O)N1c1ccc(C(F)(F)F)cc1,inactive
6,CCSc1nnc(NC(=O)C2Cc3ccccc3CN2S(=O)(=O)CC)s1 (configuration not stated),"inconclusive: 3.55 µM [activator, partial curve, poor fit]"
7,CN(C)c1nc(N(C)C)nc(N(C)C)n1,"inconclusive: 29.1 µM [inhibitor, single point]"
8,CC(C)NC(=S)N1CCN(C(c2ccccc2)c2ccccc2)CC1,"inconclusive: 12.6 µM [inhibitor, single point]"
9,CC1Nc2nc(NC(=O)C(C)(C)C)[nH]c(=O)c2N(C)C1C (configuration not stated),"inconclusive: 11.2 µM [activator, partial curve, poor fit]"
10,Cc1ccc2nc(-c3ccc(NC(=O)CCS(=O)(=O)c4ccccc4)cc3)sc2c1,"inconclusive: 7.08 µM [inhibitor, partial curve, poor fit]"
11,Cc1ccc(C(=O)Nc2cccc(-c3cnc4ccccc4n3)c2)cc1,inactive
12,CC(=O)Nc1ccc(NC(=O)COC(=O)CCNS(=O)(=O)c2c(Cl)cccc2Cl)cc1,inactive
13,CC/C(=N\NC(=S)Nc1cc(C)ccc1C)c1ccc(OC(F)F)cc1,inactive
14,O=C(NC(=S)Nc1c(Cl)ccc2nsnc12)c1ccco1,inactive
15,COc1ccc2nc(SCC(=O)c3ccco3)[nH]c2c1,"inconclusive: 0.291 µM [activator, full curve]"
16,C/C(=N\NC(=O)c1ccc(NS(=O)(=O)c2cccs2)cc1)c1ccccn1,"inconclusive: 3.98 µM [inhibitor, full curve, poor fit]"
17,COc1ccc(-c2csc(-c3c(N)c(C(=O)c4ccccc4)n4ccccc34)n2)cc1OC,inactive
18,OCCN1CCN(c2nc(-c3ccccc3)c3cc(Br)ccc3n2)CC1,"inconclusive: 12.6 µM [inhibitor, partial curve, poor fit]"
19,CC(Cc1cccs1)NC(=O)CCCn1nnnc1CN1CCOCC1 (configuration not stated),inactive
20,N#Cc1cccc(NCC(=O)Nc2ccc3c(c2)OCCO3)c1,"inconclusive: 11.2 µM [inhibitor, partial curve, poor fit]"
21,COc1cc2c(cc1OC)CN(c1nc(CN3CCOCC3)nc3sc4c(c13)CCCC4)CC2,"inconclusive: 35.5 µM [inhibitor, single point]"

# Gathered by group, the compounds so far with a cyano group (five)
row,SMILES,Potency
17,CCN(CC)c1nc(N)c2c(N)nc3c(c2c1C#N)CC(c1ccccc1)O3 (configuration not stated),"inconclusive: 29.1 µM [inhibitor, single point]"
19,CCN1CCc2c(C#N)c(N3CCCCC3)nc(N3CCOCC3)c2C1,"inconclusive: 35.5 µM [inhibitor, single point]"
21,N#Cc1ccccc1Sc1ccccc1N,"inconclusive: 20.6 µM [activator, partial curve, poor fit]"
16,Cc1ccc(-c2csc(C(C#N)=C3CCCC3)n2)cc1,"inconclusive: 14.1 µM [activator, partial curve, poor fit]"
20,N#Cc1cccc(NCC(=O)Nc2ccc3c(c2)OCCO3)c1,"inconclusive: 11.2 µM [inhibitor, partial curve, poor fit]"
